At least one peptide structure holds a part that was inferred or is arguable (an end, a ring closure or a residue). Ends that are not written are not given here.
How the values were obtained:
[1] = tested on: CD3+CD8+ T cells from HIV+ subjects; assay: CFSE-proliferation, CD3+CD8+ T cells from HIV+ subjects; assay type: cell-based, human; design: key to CD8^+ T-cell proliferation (8P): positive (+); negative (−) response; inhibitory (↓); not done (n); details: for CD8^+ T-cell proliferation (8P): HIV^+ subjects compared to HIV^− control group; for CD8^+ T-cell Responder Frequency (%) / CD8^+ T-cell Responder Frequency: large 13-15mer peptides, yr 2, responders to Fp9 or Fp14 pool via CFSE proliferation; for CD8^+ T-cell Responder Frequency: responders/tested; for (magnitude) CD8 Proliferation: average positive values; for (magnitude) CD8 Proliferation / Responder Frequency in %, CD8 Proliferation: responders to Fp9 or Fp14 peptide pools
Procedure: 2×10^5-5×10^5 CFSE labeled PBMCs were incubated with 15-20 μg of peptides in 600 μL of RPMI media with 10% FBS for 5 days at 37° C. (5% CO2). After harvesting, they were labeled with allophycocyanin (APC), APC-H7, and Pacific Blue labeled monoclonal antibodies (MAb) to human CD3, CD4, and CD8, respectively and analyzed for T-cell proliferation by flow cytometry using BD LSRII (BD Biosciences). The proliferating CD4^+ or CD8^+ T cell populations were defined from the CD3^+ cell population as either CD3^+CD8^+ or CD3^+CD4^+T cells (mutually exclusive) with low CFSE (CFSE^low) staining.
Flow cytometry (FACS) for carboxyfluoresein diacetate succinimide ester (CFSE)-proliferation and intracellular cytotoxin staining (ICS). The CFSE-proliferation analysis was performed on PBMC according to the manufacturer's protocol (Invitrogen, Carlsbad, Calif.) and processed as previously described (Lichterfeld et al. (2004)). Modifications consisted of using 2.0-5.0×10^5 CFSE-labeled cells stimulated for 5 days (37° C., 5% CO^2) with 30 μg/well of total peptides in a pool (15 μg/well for individual peptide, Table 10) or 5 μg/mL PHA in AIM V medium containing 25 μg/mL of gentamycin and 10% heat-inactivated human serum. Subsequently these cells were harvested and labeled with the LIVE/DEAD fixable yellow dye (Invitrogen) and then treated 5 min with anti-CD16/CD32 antibody (Biolegend, San Diego, Calif.) for blocking non-specific binding before phenotype-specific antibodies. The following antibodies were used for the CFSE-proliferation analysis: anti-CD4 APC, anti-CD3 APC-H7, and anti-CD8 Pacific Blue (BD Biosciences, San Jose, Calif.).
In both analyses, 1.0-2.0×10^4 cells were fixed in phosphate-buffered saline (PBS) containing 2% paraformaldehyde and analyzed on BD LSRII using […] Software (BD Biosciences), with a positive threshold of 3% CFSE^low for CFSE-proliferation and 1% T cells expressing cytotoxin for ICS. The final value for each subject was derived after subtraction of the subject's medium control and the average value of peptide-stimulated cells from uninfected control subjects.
Flow cytometry (FACS) for measuring CFSE-proliferation and intracellular cytokine staining (ICS). Carboxyfluorescein diacetate succinimide ester (CFSE)-proliferation analysis was performed according to the manufacturer's protocol (Invitrogen) and processed as previously described (Lichterfeld et al. 2004) using the following modification: 2.5-5.0×10^5 CFSE-labeled PBMC stimulated for 4-5 days (37° C., 5% CO2) with 15-30 μg of peptides in culture media (AIM V medium, 25 μg/mL gentamycin, and 10% heat-inactivated fetal bovine serum). The ICS analysis was performed as previously described (Horton et al. 2007; Pattacini et al. 2012).
The antibodies used for the proliferation analysis consisted of anti-CD4 allophycocyanin (APC) anti-CD3 APC-H7, and anti-CD8 Pacific Blue, and those for ICS were anti-CD3 APC-H7, anti-CD4 BD Horizon V450, anti-CD8 FITC, anti-granzyme B (GrzB) Alexa 700, anti-granzyme A (GrzA) PE (BD Biosciences, Cat #555349, 560176, 558207, 560345, 555366, 560213, 558904), and anti-perforin PerCP (Abcam, Cat #ab86319). Both analyses were performed with BD LSRII and […]™ Software (BD Biosciences), using a positive threshold of >1% CFSE^low for CFSE-proliferation except for ICS studies with threshold of >0.1% T cells expressing cytotoxin. The final value for each subject was derived after subtracting the result of each HIV^+ subject with the media control followed by subtraction with the average response of the media-control subtracted HIV^− subjects.

[2] = tested on: PBMC from FIV-vaccinated cats; assay: IL2 ELISpot, PBMC from FIV-vaccinated cats (prototype vaccine, or prime plus MAP boosts); assay type: cell-based, cat; details: for IL2 (SFU): prime 1x IWV, post-second MAP boost, peptide or MAP as culture stimulant, >50 positive
From the text: (§1) Peptide Fp4-3 (left), peptide Fp14-1 (middle) and MAP1 [right] were culture stimulants. IL2 and IFNγ ELISpot results of >50 spot forming units (SFU/10^6 PBMC) and CFSE-proliferation of >2 are considered positive (bolded). The prime-boost vaccination induced IL2 responses in 3 of 4 cats and IFNγ response in one. Larger responses were induced by MAP1 than individual peptides in culture.

[3] = tested on: CD4+ T cells from FIV-vaccinated cats; assay: CFSE-proliferation, CD4+ T cells from FIV-vaccinated cats; assay type: cell-based, cat; details: for Proliferation (CFSE^low) CD4^+ T cells: prime 1x IWV, post-second MAP boost, peptide or MAP as culture stimulant, >2 positive
From the text: FIGS. 32A and 32B. T-cell proliferation responses to FIV p24 peptide pools by vaccinated cats. […] (FIG. 32A) and CD3^+CD8^+ (FIG. 32B) T-cell proliferation responses are shown for prototype FIV-vaccinated cats. The FIV vaccinated cats were semi-inbred cats with blue, dark red, and pink/green bars from different MHC-lineage colonies. The semi-inbred cats with light pink and green bars are from the same […] lineage. Pools Fp9 and Fp14 are recognized by both HIV^+ subjects and vaccinated cats (i.e., evolutionarily conserved [EC] epitopes) but pools Fp3 and Fp4 are not recognized by HIV^+ subjects (i.e., non-EC epitopes). The IFNγ responses of these cats were either low or below the cut-off threshold of 50 SFU/1×10^6 PBMC. The peptides that stimulated the most proliferation responses: non-EC peptide Fp4-3 in pool Fp4 and EC peptide Fp14-1 in pool Fp14 were used in in vivo study below (FIG. 34).
FIGS. 33A-33C. IFNγ and T-cell proliferation responses to Fp9 and Fp14 by the FIV-vaccinated cats and FIV-infected cats. The T cells or PBMC from 32 FIV-vaccinated cats were stimulated with either Fp9 or Fp14 and evaluated for proliferation (FIG. 33A) or IFNγ (FIG. 33B) responses. In addition, the PBMC from 32 FIV-infected cats at 22-52 weeks of infection and 20 HIV-1 p24-immunized cats were tested for IFNγ responses to the same peptide pools (FIG. 33B). Three types of laboratory cats were used in these studies: semi-inbred line 1 (Semi-Inbred 1), semi-inbred line 2 (Semi-Inbred 2), and outbred cats (Outbred) from laboratory cat vendors. Semi-inbred cats have been inbred for 3-5 generations with defined feline leukocyte antigen (FLA) alleles and are divided into two FLA haplotype lines. FIV vaccine consisted of prototype dual-subtype FIV vaccine (Coleman et al. 2014). The insert in each panel defines the numbers of each type of cats as well as vaccination (Vac.) or infection (Infect.) status. The number of cat responders used varies between the analyses performed for the individual Fp14 peptides (FIG. 33C, left for IFNγ and right for proliferation).
as §1

[4] = cat DVB, boost-1 MAP1b, boost-2 MAP1b
[5] = cat DVD, boost-1 MAP1, boost-2 MAP1
[6] = cat QVQ, boost-1 MAP1b, boost-2 MAP1b
[7] = cat QVW, boost-1 MAP1, boost-2 MAP1

Sequence: AEVKLYLKQSLSIA [Fp14-3]
- CD8^+ T-cell proliferation (8P) [1]: +
- CD8^+ T-cell Responder Frequency (%) [1]: (83) %
- CD8^+ T-cell Responder Frequency [1]: 5/6

Sequence: DQEQNTAEVKLYLK [Fp14-1]
- CD8^+ T-cell proliferation (8P) [1]: +
- (magnitude) CD8 Proliferation [1]: low (The average positive values are considered low when the frequency of response is <15% CFSE)
- CD8^+ T-cell Responder Frequency (%) [1]: (40) %
- Responder Frequency in %, CD8 Proliferation [1]: 50%
- CD8^+ T-cell Responder Frequency [1]: 4/10
- IL2 (SFU) [2, 4]: 70 SFU/10^6 PBMC
- IL2 (SFU) [2, 5]: 53 SFU/10^6 PBMC
- IL2 (SFU) [2, 6]: 12 SFU/10^6 PBMC
- IL2 (SFU) [2, 7]: 0/0 SFU/10^6 PBMC
- CD4+ T-cell proliferation in FIV-vaccinated cats (in words) [3]: induced
- Proliferation (CFSE^low) CD4^+ T cells [3, 4]: 2
- Proliferation (CFSE^low) CD4^+ T cells [3, 5]: 0
- Proliferation (CFSE^low) CD4^+ T cells [3, 6]: 1/1
- Proliferation (CFSE^low) CD4^+ T cells [3, 7]: 6

Sequence: FAPARMQCRAWYLEA [Fp9-3]
- frequency of CD8+ T-cell proliferation responders, epitope mapping ([1]; Fp9 responders): 50%
- magnitude of CD8+ T-cell proliferation ([1]; Fp9 responders, epitope mapping): 14 % CFSE^low
- frequency of CD8+ T-cell proliferation responders, epitope mapping ([1]; Fp9 responders, 9mer peptides and 15mer control): 3 of 6
- (magnitude) CD8 Proliferation [1]: X-high
- CD8^+ T-cell Responder Frequency (%) [1]: (86) %
- Responder Frequency in %, CD8 Proliferation [1]: 67%
- CD8^+ T-cell Responder Frequency [1]: 6/7
- Fp9 responders whose CD8+ T cells proliferate to individual 13-15mer peptide ([1]; seven Fp9 responders): 6 of 7

Sequence: KKKSGKWRMLIDFRV [F3-3]
- CD8+ T-cell proliferation response of HIV+ subjects (in words) ([1]; RT peptides): highly conserved among HIV+ subjects
- responder frequency of CD8+ T-cell proliferation to individual F3 peptides ([1]; eight F3 responders): 5 of 8
- responder frequency of CD8+ T-cell proliferation to individual peptide ([1]; eight F3 responders): 62%
- IL2 responses in PBMC from FIV-vaccinated cats (in words) [2]: strong
- CD4+ T-cell proliferation in FIV-vaccinated cats (in words) [3]: negligible

Sequence: KLYLKQSLSIANA [Fp14-4]
- CD8^+ T-cell proliferation (8P) [1]: +
- CD8^+ T-cell Responder Frequency (%) [1]: (100) %
- CD8^+ T-cell Responder Frequency [1]: 6/6

Sequence: WRMLIDFRVLNKL [F3-4]
- responder frequency of CD8+ T-cell proliferation to individual F3 peptides ([1]; eight F3 responders): 3 of 8
- IL2 responses in PBMC from FIV-vaccinated cats (in words) [2]: strong
- CD4+ T-cell proliferation in FIV-vaccinated cats (in words) [3]: negligible

— patent US10905757B2, “Cross-reactive T cell epitopes of HIV, SIV, and FIV for vaccines in humans and cats” (priority 2012, dated 2021)
